# Laboratory results: US20130064825A1
# Results are given in words; binding and its absence hold for the method and conditions named. A result given as binding can be weak or reduced; the word gives no strength.
# Target: cynomolgus monkey PCSK9, V5-6xHIS tagged (cynomolgus monkey)
# Experiment: KinExA solution equilibrium titration; title: 10 or 100pM 16F12 + (0.05pM ~ 5nM) cPCSK9; free antibody measured
binder,measurement,value
"16F12, anti-PCSK9 huIgG4 (antibody, V domains shown) VH: QVHLVESGGGVVQPGRSLRLSCAASGFTFNSFGMHWVRQAPGKGLEWVALIWSDGSDEYYADSVKGRFTISRDNSKNTLYLQMNSLRAEDTAVYYCARAIAALYYYYGMDVWGQGTTVTVSS VL: QSVLTQPPSVSAAPGQKVTISCSGSSSNIGNNFVSWYQQLPGTAPKLLIYDYNKRPSGIPDRFSGSKSGTSATLGITGLQTGDEADYYCGTWDSSLSAYVFGTGTRVTVLQ",binding,binds
